From PMC10535701
No constants are given. Whether binding was seen depends on the method and setting. In cells and extracts the contact can be indirect. Some entries that bind do so weakly or less than the wild type.

Protein sequences, listed by entry. Tags and fused reporters are not part of them.
UniProt P10242: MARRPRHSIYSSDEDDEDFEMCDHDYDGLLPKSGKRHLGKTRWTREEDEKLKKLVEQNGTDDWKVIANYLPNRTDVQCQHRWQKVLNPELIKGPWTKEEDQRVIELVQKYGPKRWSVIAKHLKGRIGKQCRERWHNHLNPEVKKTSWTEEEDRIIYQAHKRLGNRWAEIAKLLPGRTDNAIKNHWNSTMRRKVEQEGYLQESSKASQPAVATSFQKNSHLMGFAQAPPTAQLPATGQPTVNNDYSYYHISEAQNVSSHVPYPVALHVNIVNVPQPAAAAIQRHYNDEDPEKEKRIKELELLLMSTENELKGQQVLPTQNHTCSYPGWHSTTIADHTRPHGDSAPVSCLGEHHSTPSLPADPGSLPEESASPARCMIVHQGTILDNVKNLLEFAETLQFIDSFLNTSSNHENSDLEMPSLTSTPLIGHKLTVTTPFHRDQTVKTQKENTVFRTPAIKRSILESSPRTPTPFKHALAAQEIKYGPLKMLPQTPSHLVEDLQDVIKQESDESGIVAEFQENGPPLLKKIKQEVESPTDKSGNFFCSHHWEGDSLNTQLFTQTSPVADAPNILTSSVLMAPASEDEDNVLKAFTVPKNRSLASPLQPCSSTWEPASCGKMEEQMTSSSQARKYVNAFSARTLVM

Columns and labels:
[1] = molecular target: MYB, exogenous in HEK293T cells (UniProt P10242); test: co-IP; exogenous BATF2 and MYB in HEK293T cells; repeated three times; details in the Supplementary materials and methods
[2] = molecular target: MYB, endogenous in Jurkat T cells (human (endogenous in Jurkat)) (UniProt P10242); test: co-IP; endogenous BATF2 and MYB in Jurkat T cells; repeated three times; details in the Supplementary materials and methods

binding [1] | binding [2] | Binder
binds | – | BATF2 (basic leucine zipper ATF-like transcription factor 2), exogenous in HEK293T cells (protein, UniProt Q8N1L9 1-274) MHLCGGNGLLTQTDPKEQQRQLKKQKNRAAAQRSRQKHTDKADALHQQHESLEKDNLALRKEIQSLQAELAWWSRTLHVHERLCPMDCASCSAPGLLGCWDQAEGLLGPGPQGQHGCREQLELFQTPGSCYPAQPLSPGPQPHDSPSLLQCPLPSLSLGPAVVAEPPVQLSPSPLLFASHTGSSLQGSSSKLSALQPSLTAQTAPPQPLELEHPTRGKLGSSPDNPSSALGLARLQSREHKPALSAATWQGLVVDPSPHPLLAFPLLSSAQVHF
– | binds | BATF2 (basic leucine zipper ATF-like transcription factor 2), endogenous in Jurkat T cells (protein, UniProt Q8N1L9 1-274) MHLCGGNGLLTQTDPKEQQRQLKKQKNRAAAQRSRQKHTDKADALHQQHESLEKDNLALRKEIQSLQAELAWWSRTLHVHERLCPMDCASCSAPGLLGCWDQAEGLLGPGPQGQHGCREQLELFQTPGSCYPAQPLSPGPQPHDSPSLLQCPLPSLSLGPAVVAEPPVQLSPSPLLFASHTGSSLQGSSSKLSALQPSLTAQTAPPQPLELEHPTRGKLGSSPDNPSSALGLARLQSREHKPALSAATWQGLVVDPSPHPLLAFPLLSSAQVHF
